Reference: PubChem BioAssay AID1347076 (National Center for Advancing Translational Sciences (NCATS), 2019)
“And” between values parts separate entries of the source, which are not always exact repeats. Equal values may be shown once. Screen size: about 400,000 compounds; about 13,000 (3.2%) were called active. Inconclusive results, whose numbers are uncertain, are shown with a selection of clear calls. Calls come from the whole dose curve; as a rule, active = well fitted cell-killing curve with a large enough effect; inconclusive = small, poorly fitted or top-dose-only effect, or effect the other way; inactive = flat fitted curve, though single readings scatter. Potencies of inconclusive entries are doubtful fits and often do not repeat.

Test: qHTS assay for MDR1-selective chemotherapeutics: Primary screen using the drug-selected MDR subline cells KB-V1; note: nearly all actives have a fitted effect of over 60% in size
Settings: KB-V1 MDR cells viability, CellTiter-Glo, 72 h; activity change, negative = cytotoxicity: at 46.1 µM (top of the series)
Summary of the method: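 Compound-treated KB-V1 multidrug-resistant cells, 72 h, 37 degrees C; viability by CellTiter-Glo. Fitted qHTS curves give the values.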
% is set by controls: 0 for no effect and ±100 for the full control effect; potency is the fitted concentration of half-maximal effect.

| Structure (SMILES) | Potency | activity change, negative = cytotoxicity |
| --- | --- | --- |
| CC1CCN(C(=O)CN2C(=O)NC(C)(c3ccc4ccccc4c3)C2=O)CC1 (centres undefined) | inactive | – |
| O=C(NC(c1ccccc1)c1ccccc1)c1ccc(S(=O)(=O)C(F)F)cc1 | inactive | – |
| COc1cccc(NC(=O)C(C)OC(=O)c2n[nH]c3ccccc23)c1 (centres undefined) | inactive | – |
| O=C(COC(=O)Cc1ccccc1F)Nc1ccc(SC(F)F)cc1 | inconclusive: 20.6 µM [rising, single point] | – |
| CC(C)NC(=O)C1(C)CCCCN1Cc1cccc(C(F)(F)F)c1 (centres undefined) | inactive | – |
| CCOc1c(Br)cc(/C=C(\C#N)C(=O)NC2CC2)cc1OC | inconclusive: 32.6 µM [rising, single point] | – |
| Cc1cc(C)c2c(-n3cccc3)c(NC(=O)OC(C)C)sc2n1 | inconclusive: 13 µM [cytotoxic, partial curve] | – |
| C/C(=N\NC(=O)c1ccc(Cl)c(S(=O)(=O)Nc2ccccc2Cl)c1)c1ccncc1 | active: 23.1 µM | – |
| COc1ccccc1-n1cc(-c2ccc([N+](=O)[O-])cc2)[nH]c1=S | inconclusive: 29.1 µM [rising, single point] | – |
| COc1ccc(-c2ccc(SCC(=O)N3CCOCC3)nn2)cc1 | inconclusive: 20.6 µM [cytotoxic, single point] | – |
| O=C1CCC([N+](=O)[O-])C(c2ccc3c(c2)OCO3)N1 (centres undefined) | inconclusive: 29.1 µM [cytotoxic, single point] | – |
| CC1CCN(C(=O)c2cc3c(ccc4ccccc43)o2)CC1 | inactive | – |
| C=C1CCC[C@]2(C)C[C@H]3OC(=O)C(CNC(C)CC)[C@H]3CC12 (some centres undefined) | inactive | – |
| COc1ccc(NC(=O)CN2C(=O)CSc3ccc(S(=O)(=O)N(C)C)cc32)cc1OC | inconclusive: 25.9 µM [rising, single point] | – |
| Cc1ccc(NC(=O)C2CCN(S(=O)(=O)c3ccc4ccccc4c3)CC2)nc1 | inconclusive: 23.1 µM [cytotoxic, single point] | – |
| Cc1cc2c(cc1S(=O)(=O)N(CCO)Cc1ccccc1)OCC(=O)N2 | inconclusive: 20.6 µM [rising, partial curve, poor fit] | – |
| CCOc1cc(C2C(C(=O)Nc3ccccc3)=C(C)Nc3ncnn32)cc(Br)c1O (centres undefined) | inconclusive: 29.1 µM [rising, single point] | – |
| Cn1c(=O)c2c(ncn2CC(=O)N2CCN(S(=O)(=O)c3ccc(F)cc3)CC2)n(C)c1=O | inconclusive: 18.4 µM [rising, single point] | – |
| Cc1cc(C(=O)CN2CCCC(C)C2)c(C)n1-c1ccc(F)cc1 (centres undefined) | inconclusive: 20.6 µM [cytotoxic, partial curve, poor fit] | – |
| O=C(CCC(=O)OCC(=O)c1ccc(-c2ccccc2)cc1)Nc1cccc2cccnc12 | inactive | – |
| OC(CNCc1ccccc1)(c1ccc(F)cc1)c1ccc(F)cc1 | inactive | – |
| OCC1CCCN(Cc2cn(Cc3ccccc3)nc2-c2cc3ccccc3o2)C1 (centres undefined) | – | inconclusive: -1.69% |
| COc1cc(NC(=O)c2c(F)c(F)c(OC)c(F)c2F)ccc1NC(=O)c1cccs1 | inconclusive: 1.46 µM [cytotoxic, partial curve, poor fit] | – |

| Structure (SMILES) | Potency | activity change, negative = cytotoxicity |
| --- | --- | --- |
| Cc1cc(SCC(=O)N(C)CC(=O)Nc2ccc(F)cc2)nc2ccccc12 | active: 5.17 µM | – |
| Cc1nc([N+](=O)[O-])c(Br)n1CC(=O)c1ccc(Cl)cc1 | inconclusive: 23.1 µM [cytotoxic, partial curve, poor fit] | – |
| COc1ccccc1CN1CCN(S(=O)(=O)c2ccccc2)CC1 | inactive | – |
| COc1ccc(OC)c(NC(=O)CSc2nc3c(c(=O)n(C)c(=O)n3C)n2C)c1 | inconclusive: 29.1 µM [cytotoxic, single point] | – |
| COc1cccc(Nc2nc(N)c([N+](=O)[O-])c(N3CCOCC3)n2)c1 | inactive | – |
| Cc1ccc(NC(=O)Cn2c(CCC(=O)O)ccc2-c2cccs2)cc1Cl | inconclusive: 3.26 µM [rising, partial curve, poor fit] | – |
| CC1=NOC(=O)/C1=C\c1ccc(-c2ccc(Cl)cc2Cl)o1 | inconclusive: 18.4 µM [cytotoxic, single point] | – |
| Cc1ccc(C)c(NC(=O)CCS(=O)(=O)c2cccc3nsnc23)c1 | inactive | – |
| CCOC(=O)N1CCN(C(=O)CNCc2cccs2)CC1 | inactive | – |
| Cc1ccc(S(=O)(=O)NC2CC(C)(C)NC(C)(C)C2)cc1 | inconclusive: 25.9 µM [rising, single point] | – |
| COc1ccc(NC(=O)Nc2cc(C(=O)O)ccc2N2CC3CC(C2)c2cccc(=O)n2C3)c(OC)c1 (centres undefined) | inconclusive: 4.11 µM [rising, full curve, poor fit] | – |
| CCOC(=O)Nc1cccc(NC(=O)c2cc(OC)cc(OC)c2)c1 | inconclusive: 29.1 µM [cytotoxic, single point] | – |
| O=C(CN(Cc1ccccc1)S(=O)(=O)c1ccccc1)N/N=C/c1ccccc1[N+](=O)[O-] | active: 23.1 µM | – |
| Cc1ccc(C)c(N2CCN(C(=O)C3CCN(S(=O)(=O)c4ccc5[nH]c(=O)oc5c4)CC3)CC2)c1 | inactive | – |
| O=C(CCNC(=O)c1ccc(Br)cc1)NCCCc1ccccc1 | inconclusive: 29.1 µM [cytotoxic, single point] | – |
| Cn1c(=O)oc2cc(S(=O)(=O)N3CCCC(C(=O)N4CCN(c5ccc(Cl)cc5)CC4)C3)ccc21 (centres undefined) | inconclusive: 8.2 µM [cytotoxic, partial curve, poor fit] | – |
| CC(C)NC(=O)C1(C)CCN1Cc1cccc(C#N)c1 (centres undefined) | inactive | – |
| O=[N+]([O-])c1ccc(/C=N/Nc2ccc3ccccc3c2)o1 | inactive | – |
| O=C(CN1CCN(c2ccccn2)CC1)N1CC(O)CO1 (centres undefined) | inconclusive: 6.51 µM [rising, partial curve, poor fit] | – |
| O=S(=O)(c1cccnc1)N1CCCC(Nc2ccc(F)c(F)c2)C1 (centres undefined) | inconclusive: 18.4 µM [cytotoxic, partial curve] | – |
| O=C1CC(c2nc3ccccc3n2CCC2CCCCC2)CN1c1ccccc1Cl (centres undefined) | inconclusive: 18.4 µM [cytotoxic, single point] | – |
| C=C(C)CNC(=S)NNC(=O)CCn1c2ccccc2c2ccccc21 | active: 18.4 µM | – |
| CCn1c(SCC(=O)NC2CCCCC2C)nnc1-c1ccc(OC)cc1 (centres undefined) | active: 2.59 µM | – |

4 structures out of the list, ordered by number of heavy atoms, low to high.

| Structure (SMILES) | Potency | activity change, negative = cytotoxicity |
| --- | --- | --- |
| COc1ccc(-c2ccc(SCC(=O)N3CCOCC3)nn2)cc1 | inconclusive: 20.6 µM [cytotoxic, single point] | – |
| OC(CNCc1ccccc1)(c1ccc(F)cc1)c1ccc(F)cc1 | inactive | – |
| O=C(NC(c1ccccc1)c1ccccc1)c1ccc(S(=O)(=O)C(F)F)cc1 | inactive | – |
| COc1ccc(NC(=O)CN2C(=O)CSc3ccc(S(=O)(=O)N(C)C)cc32)cc1OC | inconclusive: 25.9 µM [rising, single point] | – |

Carrying on:

| Structure (SMILES) | Potency | activity change, negative = cytotoxicity |
| --- | --- | --- |
| CC(=O)c1cccc(NC(=O)C2=CC(c3ccc(F)cc3)=NS(=O)(=O)N2C)c1 | inactive | – |
| CCCCN(C(=O)Nc1ccc(Cl)cc1)C1CCN(C(C)=O)CC1 | inconclusive: 13 µM [cytotoxic, partial curve, poor fit] and inconclusive: 411 nM [cytotoxic, full curve, poor fit] | – |
| O=C(NC1CCCC1)C(c1ccco1)N(C(=O)c1ccco1)c1ccccc1 (centres undefined) | inconclusive: 13 µM [cytotoxic, partial curve] | – |
| COc1ccccc1CNC(=O)C1(C)CCN1Cc1ccc(OC(F)(F)F)cc1 (centres undefined) | inactive | – |
| Nc1c(-c2cccc(Cl)c2)cnn1-c1cccc([N+](=O)[O-])c1 | inconclusive: 18.4 µM [cytotoxic, single point] | – |
| O=C(/C=C1\OCc2ccccc21)c1ccccc1 | inactive | – |
| COc1ccc(NC(=O)CCCn2nc(C)c3c(C)n(-c4ccccc4)nc3c2=O)cc1 | inactive | – |
| COc1ccc(Nc2nnc(SC(C)C(=O)NC3CC3)s2)cc1 (centres undefined) | inconclusive: 0.0052 µM [cytotoxic, full curve, poor fit] | – |
| Cc1ccc(S(=O)(=O)N(CC(=O)NCc2ccccc2Cl)C(=O)N2CCN(C)CC2)cc1 | inconclusive: 18.4 µM [rising, single point] | – |
| NNc1nc(Nc2ccccc2)nc(N2CCCCC2)n1 | inconclusive: 4.61 µM [cytotoxic, partial curve] | – |
| Cc1ccc2onc(CC(=O)N3CCN(c4ccc(Cl)cc4)CC3)c2c1 | inconclusive: 29.1 µM [cytotoxic, single point] | – |
| O=C(NC1CCCCC1)c1ccc(CSc2nc3ccncc3n2Cc2ccccc2)cc1 | inactive | – |
| COc1ccc(-c2[nH]ncc2CN(C)C(C)c2ccon2)c(OC)c1 (centres undefined) | inconclusive: 18.4 µM [rising, single point] | – |
| COCCCN(C(=O)CCOc1ccc(C(C)(C)C)cc1)c1c(N)n(Cc2ccccc2)c(=O)[nH]c1=O | inconclusive: 23.1 µM [rising, single point] | – |
| Cc1cc(C(=O)CSc2nnc(N)s2)c(C)n1-c1c(C)n(C)n(-c2ccccc2)c1=O | inconclusive: 29.1 µM [rising, single point] | – |
| CC(=O)CCc1oc2ccc(C)cc2c1-c1ccc(C)o1 | inactive | – |
| OC(c1ccccn1)(c1ccccn1)c1ccccn1 | active: 10.3 µM | – |
| Cc1ccc(NC(=O)Cn2c(=O)n(CCCC(=O)NCc3ccc4c(c3)OCO4)c(=O)c3ccccc32)cc1 | inconclusive: 29.1 µM [rising, single point] | – |
| CNC(=O)COC(=O)[C@@H](Nc1ccc(S(=O)(=O)N2CCOCC2)cc1[N+](=O)[O-])C(C)C | inconclusive: 29.1 µM [rising, single point] | – |
| CCOC(=O)C(=Cc1ccccc1)C(=O)c1ccccc1 | inconclusive: 29.1 µM [cytotoxic, single point] | – |
| CC(C)COc1ccc(-c2nnc(-c3ccncc3)o2)cc1 | inconclusive: 20.6 µM [cytotoxic, partial curve, poor fit] | – |
| N#CCOc1ccccc1CNC[C@H]1O[C@@H](n2cnc(C(N)=O)n2)[C@H](O)[C@@H]1O | inconclusive: 0.82 µM [rising, full curve, poor fit] | – |
| CCOC(=O)[C@H]1[C@H]2COc3cc(OC)ccc3[C@@H]2N2C(=O)N(c3cccc(Cl)c3)C(=O)[C@@]12C | inconclusive: 4.61 µM [cytotoxic, full curve, poor fit] | – |
